Source: PubChem BioAssay AID326 (DTP/NCI, 2004)
The list shows only some results of the screen, not a fair sample: it covers a few groups of compounds. Not every dose and run of a compound is shown. T/C is the treated group as % of the vehicle group. Where survival is the endpoint, this PubChem deposit counts one and a half times the control or more as active, and values a quarter to a half above the control carry no call in these data; other NCI protocols may use other cut-offs. Schedule codes are those of the source, taken here to give the interval after Q, in days (D) or hours (H), and the number of doses after X. Some entries show no survivor count and are marked so; the dose need not have been tolerated.

System: CD2F1 mice, P388/DHAQ leukemia ip, median survival T/C
Test: NCI In Vivo Anticancer Drug Screen. Data for tumor model P388 Leukemia resistant to Dihydroxy Anthracenedione; NSC 299195 (intraperitoneal) in CD2F1 (CDF1) mice
Conditions: T/C endpoint: median survival time, schedule: Q04DX003 (ip), vehicle: saline, higher T/C = longer survival
Protocol: The antitumor activity of compounds was measured in mice bearing transplantable tumors. Survival or tumor size were measured and the results are expressed as the measurement made in the treated group (T) divided by the measurement made in the vehicle treated control group (C). The tumor model used in this assay is P388 Leukemia resistant to Dihydroxy Anthracenedione; NSC 299195 (intraperitoneal) in CD2F1 (CDF1) mice

CC(=O)OCC12CCC(C)=CC1OC1C(O)C(OC(C)=O)C2(C)C12CO2 (configuration not stated)
T/C (dose: 3.24 mg/kg/injection): 126 % of control [survivor count not shown]
T/C (dose: 5.4 mg/kg/injection): 135 % of control [survivor count not shown]
